Data as given in PubChem BioAssay AID652243 (Drosophila RNAi Screening Center, 2013).
In all, the deposit lists about 24,000 reagents; shown is a random part of those that have a named target and a result. Of all reagents, 246 (1%) are marked active. 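Plates not normalised; calls are printed but the firefly/Renilla ratio behind them is not deposited; fold cut for lowering reported inconsistently.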 Raw values vary from plate to plate and are shown uncorrected. Reagents against one gene are numbered here. The record does not give: the amount of reagent.

- Purpose: 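Fly regulators of androgen-dependent reporter output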 (primary screen)
- Cells: Drosophila S2R+ cells
- Reagents: long dsRNA against Drosophila genes
- Time to read-out: 72 h (48 h, then 24 h hormone)
- Treatment: synthetic androgen R1881 at 10 nM for 24 h
- Measured: 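Firefly light from an androgen-responsive reporter and Renilla control light per well, raw and unnormalised, for each of two replicates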
- Direction: firefly reporter light: higher = more light from androgen-responsive reporter; Renilla control light: higher = more constitutive control signal (cell number, transfection)
- Call rule: 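Across duplicate plates, a knock-down whose log firefly/Renilla ratio shifted a set fold down or up from the GFP/LacZ control mean was a hit; the downward cut appears as both 1.5 and 3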
- Calls: active = hit: reporter lowered or raised; inactive = no hit

no.	gene knocked down	dsRNA no.	firefly reporter light, replicate 1	firefly reporter light, replicate 2	Renilla control light, replicate 1	Renilla control light, replicate 2	Outcome
1	CG10347	1	3.61e5	4.50e5	3.88e6	3.79e6	inactive
2	CG17782	1	6.92e5	7.90e5	1.80e6	1.61e6	inactive
3	ema (endosomal maturation defective)	1	2.87e5	2.31e5	2.82e6	2.53e6	inactive
4	CG3119	1	6.54e5	6.57e5	1.06e6	9.93e5	inactive
5	CG3500	1	2.65e5	2.73e5	1.70e6	1.49e6	inactive
6	CG3500	2	4.90e5	6.04e5	6.98e5	5.81e5	inactive
7	Prosbeta5 (Proteasome beta5 subunit)	1	2.95e5	1.45e5	1.71e6	1.18e6	inactive
8	Prosbeta5 (Proteasome beta5 subunit)	2	6.35e5	6.34e5	1.14e6	1.46e6	inactive
9	ath (athos)	1	1.22e5	1.78e5	7.46e5	9.20e5	inactive
10	Ugt35D1 (UDP-glycosyltransferase family 35 member D1)	1	1.98e5	1.81e5	2.27e6	2.61e6	inactive
11	CG11298	1	1.04e5	1.61e5	1.23e6	1.74e6	inactive
12	CG31688	1	30402	26895	7.54e5	5.77e5	inactive
13	CG31688	2	1.13e5	1.94e5	1.50e6	1.85e6	inactive
14	CG31688	3	6.01e5	7.30e5	5.52e5	6.82e5	inactive
15	CG31688	4	2.98e5	3.03e5	8.47e5	7.94e5	inactive
16	qless	1	2.14e5	2.43e5	2.13e6	3.07e6	inactive
17	qless	2	2.15e5	2.22e5	2.17e6	3.10e6	inactive
18	CG1275	1	8.64e5	1.08e6	1.50e6	1.43e6	inactive
19	CG30022	1	3.90e5	1.18e6	8.43e5	2.34e6	inactive
20	CG5246	1	1.28e5	1.57e5	2.15e6	2.43e6	inactive
21	CG5246	2	5.04e5	5.17e5	1.47e6	1.35e6	inactive
22	CG7483	1	68211	98979	1.67e6	1.25e6	inactive
23	CG7483	2	2.52e5	6.34e5	2.36e5	4.33e5	inactive
24	CG7483	3	2.83e5	2.64e5	5.00e5	5.03e5	inactive
